At least one structure is not confirmed: it was looked up by name or label, or the drawing left a doubt. Some compounds share one wording; it may come from a single statement.
Key:
SD rats = experiment: Capillary expectoration test in rats; type: in vivo, rat; conditions: 15 mg/kg, P<0.05 vs ambroxol hydrochloride
Procedure: Capillary Expectoration Test in Rats
The female and male SD rats with body weights ranging from 180 g to 220 g are randomLy allocated into 9 groups (n=10 rats). Before measuring the length of phlegm expelled, the rats are prohibited to eat but allowed to drink for 12 hrs, and then administrated via tail veins with corresponding products (dissolved in normal saline to adjust pH) or normal saline. After 30 mins, urethane saline solution (1 g/kg) is injected intraperitoneally for anesthesia, and the rats are fixed in a supine position for neck incision and trachea separation. […] The angle between the capillary tube and the trachea is adjusted to collect the phlegm, and the expectoration effect is evaluated based on a total length (mm) of the phlegm in the capillary tube.

mice = experiment: Phenol red expectoration test in mice; type: in vivo, mouse; conditions: 30 mg/kg
Procedure: Phenol Red Expectoration Test in Mice
Methods: Seventy-two female and male mice are randomLy allocated into a control group (normal saline), an Example 1 group (30 mg/kg, as free alkali), an Example 3 group (30 mg/kg, as free alkali), an Example 5 group (30 mg/kg, as free alkali), an Example 12 group (30 mg/kg, as free alkali) and an ambroxol hydrochloride group (30 mg/kg, as free alkali) (n=12 mice); These mice are administrated twice in successive via tail veins with corresponding products (dissolved in normal saline to adjust pH) or normal saline, and then receive 5% phenol red saline solution (0.5 g/kg) by hypodermic administration 15 mins after the last dose. […] The effects on excretory amounts of phenol red from trachea of mice among groups are analyzed and compared, and results are shown in Table 2: […]

SMILES | Expectorant effect compared with the ambroxol hydrochloride group (in words) (SD rats) | Excretory amounts of phenol red compared with the ambroxol hydrochloride group (in words) (mice; P<0.05 vs ambroxol hydrochloride) | Excretory amounts of phenol red compared with the control group (in words) (mice; p<0.05 vs control)
Nc1c(Br)cc(Br)cc1CNC12CC3CC(CC(C3)C1F)C2 (centres unmarked) [Example 8, (2-amino-3,5-dibromobenzyl)-2-fluoro-adamantane-1-amine] | remarkably superior to the ambroxol hydrochloride |  | 
Nc1c(Br)cc(Br)cc1CNC12CC3CC(C1)CC(C(F)(F)F)(C3)C2 [Example 6, (2-amino-3,5-dibromobenzyl)-3-trifluoromethyl-adamantane-1-amine] | remarkably superior to the ambroxol hydrochloride |  | 
CC12CC3CC(C1)CC(NCc1cc(Br)cc(Br)c1N)(C3)C2 [Example 5, (2-amino-3,5-dibromobenzyl)-3-methyl-adamantane-1-amine] | remarkably superior to the ambroxol hydrochloride | remarkably superior to the ambroxol hydrochloride | significantly increase

Source: patent US12006276B2, “Dibromobenzyl derivative, stereoisomer or salt thereof, and preparation method and application of dibromobenzyl derivative” (CHENGDU SHIBEIKANG BIOMEDICAL TECHNOLOGY CO., LTD., priority 2019, dated 2024)
